Experimental findings from publication doi:10.1101/2023.05.23.541941 are described below.

The chains behind the UniProt entries cited, without tags or fusion partners. Where a name states a change or a piece, a line headed by the entry shows the natural chain unless it says otherwise. A line that says so, or that is headed by a name, gives the form on record, which may keep a tag or linker.
UniProt O22456: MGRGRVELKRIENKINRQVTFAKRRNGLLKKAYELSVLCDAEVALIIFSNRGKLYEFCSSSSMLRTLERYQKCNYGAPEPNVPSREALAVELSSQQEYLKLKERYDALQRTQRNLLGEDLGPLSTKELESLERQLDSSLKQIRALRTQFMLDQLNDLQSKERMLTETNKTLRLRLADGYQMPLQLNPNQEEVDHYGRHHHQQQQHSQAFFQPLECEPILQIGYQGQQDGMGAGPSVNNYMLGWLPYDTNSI
SEP3^Δtet3M (O22456, form named): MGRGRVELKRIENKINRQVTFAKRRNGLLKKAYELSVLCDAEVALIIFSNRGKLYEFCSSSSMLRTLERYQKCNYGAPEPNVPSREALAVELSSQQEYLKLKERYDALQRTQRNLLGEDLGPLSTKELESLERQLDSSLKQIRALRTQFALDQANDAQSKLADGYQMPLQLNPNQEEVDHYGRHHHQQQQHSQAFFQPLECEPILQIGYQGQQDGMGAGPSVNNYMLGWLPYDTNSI
SEP3^Δtet (At1g24260.3) (O22456, form named): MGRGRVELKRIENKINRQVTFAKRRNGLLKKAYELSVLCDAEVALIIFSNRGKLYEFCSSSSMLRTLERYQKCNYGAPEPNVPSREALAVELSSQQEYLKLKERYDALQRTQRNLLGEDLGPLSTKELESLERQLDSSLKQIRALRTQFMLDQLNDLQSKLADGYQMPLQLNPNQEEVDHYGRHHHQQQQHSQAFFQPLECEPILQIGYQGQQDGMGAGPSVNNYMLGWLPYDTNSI
UniProt P17839: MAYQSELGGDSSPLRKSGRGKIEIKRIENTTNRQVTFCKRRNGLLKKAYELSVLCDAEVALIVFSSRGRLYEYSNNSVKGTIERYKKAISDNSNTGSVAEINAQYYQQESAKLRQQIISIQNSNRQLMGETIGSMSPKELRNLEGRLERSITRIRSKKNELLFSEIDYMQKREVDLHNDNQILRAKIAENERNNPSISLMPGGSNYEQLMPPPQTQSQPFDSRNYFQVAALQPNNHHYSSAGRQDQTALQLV
AG^Δtet (P17839, form named): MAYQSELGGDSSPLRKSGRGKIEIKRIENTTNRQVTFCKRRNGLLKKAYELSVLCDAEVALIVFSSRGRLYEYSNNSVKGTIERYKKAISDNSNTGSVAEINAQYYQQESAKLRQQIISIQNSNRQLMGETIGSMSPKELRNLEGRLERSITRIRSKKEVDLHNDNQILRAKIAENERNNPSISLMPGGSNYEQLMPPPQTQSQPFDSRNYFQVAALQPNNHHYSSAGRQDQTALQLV
UniProt P35631: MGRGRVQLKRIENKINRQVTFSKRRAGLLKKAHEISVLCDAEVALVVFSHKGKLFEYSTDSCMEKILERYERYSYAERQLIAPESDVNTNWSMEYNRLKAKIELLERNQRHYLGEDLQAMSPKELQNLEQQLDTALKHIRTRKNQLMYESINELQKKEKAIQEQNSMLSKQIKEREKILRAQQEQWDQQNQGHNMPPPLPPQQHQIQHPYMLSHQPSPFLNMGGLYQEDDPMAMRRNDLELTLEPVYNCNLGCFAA

Test [1] deals with T1, AP3/PI heterodimer (Arabidopsis thaliana) (UniProt P35632+P48007).
T1 sequence 1: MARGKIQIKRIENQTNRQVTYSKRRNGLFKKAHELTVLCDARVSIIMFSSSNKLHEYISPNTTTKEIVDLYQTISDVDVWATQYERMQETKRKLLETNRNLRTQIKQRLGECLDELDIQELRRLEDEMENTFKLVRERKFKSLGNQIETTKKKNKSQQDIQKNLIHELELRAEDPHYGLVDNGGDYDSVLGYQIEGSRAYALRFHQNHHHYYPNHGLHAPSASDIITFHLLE
T1 sequence 2: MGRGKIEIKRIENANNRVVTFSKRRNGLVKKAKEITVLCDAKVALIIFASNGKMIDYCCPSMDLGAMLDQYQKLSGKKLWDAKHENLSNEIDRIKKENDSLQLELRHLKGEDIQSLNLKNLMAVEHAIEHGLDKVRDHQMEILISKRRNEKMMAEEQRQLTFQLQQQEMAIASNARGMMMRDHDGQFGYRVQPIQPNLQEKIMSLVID
Put plainly: native gel or EMSA. On the technique in general: Mobility shift assays separate free from complexed probe on a gel.

The target in test [2] is SEP3^Δtet/AG heterodimer (Arabidopsis thaliana) (UniProt O22456+P17839). Description: native gel or EMSA.
Test [3] concerns the target AG-5Myc (Arabidopsis thaliana) (UniProt P17839). Description: co-IP.
In test [4] the target is AG (At4g18960.1) (Arabidopsis thaliana) (UniProt P17839). Description: native gel or EMSA.
Test [5] deals with AP1 (AT1G69120) (Arabidopsis thaliana) (UniProt P35631). Description: native gel or EMSA.
The target in test [6] is SEP3/AG heterodimer (wild type) (Arabidopsis thaliana) (UniProt O22456+P17839). Description: native gel or EMSA.
Test [7] addresses SEP3/AP1 heterodimer (Arabidopsis thaliana) (UniProt O22456+P35631). Put plainly: native gel or EMSA.
In test [8] the target is AG^Δtet-5Myc (Arabidopsis thaliana) (UniProt P17839). Description: co-IP.
Test [9] has as its target AG^Δtet (Arabidopsis thaliana) (UniProt P17839). Description: native gel or EMSA.

No constants are given. Whether binding was seen depends on the method and setting. For some of these results: In cells and extracts the contact can be indirect. Some entries that bind do so weakly or less than the wild type.

Take “SEP3^Δtet/AG heterodimer (from UniProt O22456 1-251; P17839 1-252) (complex)”: the binding entry in [1] and in test [2] was “binds” each time.
“SEP3^Δtet3M-3FLAG (from UniProt O22456 1-251)”: the binding result in [3] is listed as “binds”.
Consider “SEP3^Δtet3M/AG heterodimer (from UniProt O22456 1-251; P17839 1-252) (complex)”, for which the binding entry in test [1] is on record as “binds”.
Turning to SEP3^Δtet3M (from UniProt O22456 1-251), in test [4], the binding result is reported as “binds”.
For the substance “SEP3 (At1g24260.2) (from UniProt O22456 1-251)”, the binding result in [5] and in test [4] was “binds” throughout.
In the case of “SEP3/AG heterodimer (wild type) (from UniProt O22456 1-251; P17839 1-252) (complex)”, the binding result in test [6] is listed as “binds”.
On to “SEP3/AP1 heterodimer (from UniProt O22456 1-251; P35631 1-256) (complex)”, for which the binding entry in test [1] and in [7] was “binds” each time.
As for “SEP3^Δtet/AP1 (of the mixture SEP3^Δtet/AP1/AP3/PI) (from UniProt O22456 1-251; P35631 1-256) (complex)”, in [1], the binding entry is listed as “binds”.
With “SEP3^Δtet-3FLAG (from UniProt O22456 1-251)”, the binding entry in test [8] is “binds”.
Take “SEP3^Δtet (At1g24260.3) (from UniProt O22456 1-251)”: the binding entry in test [4] and in test [9] was “binds” in each case.
On to “SEP3^Δtet/AG^Δtet heterodimer (from UniProt O22456 1-251; P17839 1-252) (complex)”, for which, in [1], the binding result was “no binding”.
As for “SEP3^Δtet3M/AP1 (of the mixture SEP3^Δtet3M/AP1/AP3/PI) (from UniProt O22456 1-251; P35631 1-256) (complex)”, the binding result in test [1] is on record as “binds”.
